Experimental data: PubChem BioAssay AID686938 (Drosophila RNAi Screening Center, 2013)
The screen tested about 23,000 reagents; shown is a random part of those with a known target gene and a result. In the full data, 75 (0.33%) were called active. 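Raw plate signals without normalisation; calls rest on plate z-scores that were not deposited; ratio present for only 364 wells.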 Entries without a mark were called inactive. Reagents against one gene are numbered here. A plus sign joins genes that one reagent is predicted to hit. Not stated in the record: the dose of the treatment.

- Aim: 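Knock-downs reducing store-operated calcium influx in Drosophila cells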 (primary screen)
- Cells: Drosophila S2R+ cells
- Reagent: long dsRNA against Drosophila genes, about 0.25 µg dsRNA per well, roughly 10,000 cells
- Duration: 5 days of knock-down before the calcium assay
- Challenge: thapsigargin (SERCA pump blocker) to empty calcium stores; entry signal taken 4 min after adding it
- Measurement: 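Per-well fluo-4 fluorescence in two replicates, unnormalised, measured in resting cells and 4 min after store depletion by the SERCA blocker thapsigargin; ratio of the two present in few wells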
- Direction: calcium entry signal: higher = stronger calcium signal after store depletion; resting calcium signal: higher = higher resting calcium signal
- Units: calcium entry signal in fluorescence units; resting calcium signal in fluorescence units
- Active means: 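Called when the plate z-score of the entry-to-rest ratio, mean of duplicates, falls below −3; wells with low overall dye signal (Fmax z below −2) or more than five off-targets excluded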
- Meaning of the calls: active = strongly reduced calcium entry; inactive = no strong reduction

Depletion of Myt1 gave: calcium entry signal, replicate 1 = 3.46e7; calcium entry signal, replicate 2 = 4.24e7; resting calcium signal, replicate 1 = 1.51e7; resting calcium signal, replicate 2 = 1.86e7.
Knock-down of CG4553 gave: calcium entry signal, replicate 1 = 3.63e7; calcium entry signal, replicate 2 = 4.64e7; resting calcium signal, replicate 1 = 2.01e7; resting calcium signal, replicate 2 = 2.17e7.
Knock-down of olf413 #1 resulted in: calcium entry signal, replicate 1 = 2.99e7; calcium entry signal, replicate 2 = 2.88e7; resting calcium signal, replicate 1 = 1.32e7; resting calcium signal, replicate 2 = 1.27e7.
For olf413 #2, the values are calcium entry signal, replicate 1 = 3.13e7; calcium entry signal, replicate 2 = 3.98e7; resting calcium signal, replicate 1 = 1.64e7; resting calcium signal, replicate 2 = 2.02e7.
Silencing of olf413 #3 resulted in: calcium entry signal, replicate 1 = 2.68e7; calcium entry signal, replicate 2 = 4.19e7; resting calcium signal, replicate 1 = 1.48e7; resting calcium signal, replicate 2 = 1.94e7.
After knock-down of olf413 #4, the record shows calcium entry signal, replicate 1 = 2.65e7; calcium entry signal, replicate 2 = 2.57e7; resting calcium signal, replicate 1 = 1.43e7; resting calcium signal, replicate 2 = 1.34e7.

Sorted by “calcium entry signal, replicate 1” (descending): some entries from above.
olf413 #2 — calcium entry signal, replicate 1: 3.13e7; calcium entry signal, replicate 2: 3.98e7; resting calcium signal, replicate 1: 1.64e7; resting calcium signal, replicate 2: 2.02e7
olf413 #3 — calcium entry signal, replicate 1: 2.68e7; calcium entry signal, replicate 2: 4.19e7; resting calcium signal, replicate 1: 1.48e7; resting calcium signal, replicate 2: 1.94e7

The results go on.
For RNaseX25, the entry reads calcium entry signal, replicate 1 = 4.87e7; calcium entry signal, replicate 2 = 3.78e7; resting calcium signal, replicate 1 = 3.30e7; resting calcium signal, replicate 2 = 1.63e7.
For CG1750, the entry reads calcium entry signal, replicate 1 = 2.71e7; calcium entry signal, replicate 2 = 2.31e7; resting calcium signal, replicate 1 = 1.60e7; resting calcium signal, replicate 2 = 1.16e7.
Knock-down of CG42512 + CG32573 #1 came out at: calcium entry signal, replicate 1 = 2.76e7; calcium entry signal, replicate 2 = 3.38e7; resting calcium signal, replicate 1 = 1.44e7; resting calcium signal, replicate 2 = 1.51e7.
With knock-down of CG42512 + CG32573 #2, the record shows calcium entry signal, replicate 1 = 2.94e7; calcium entry signal, replicate 2 = 3.26e7; resting calcium signal, replicate 1 = 1.23e7; resting calcium signal, replicate 2 = 1.38e7.
CG42512 + CG32573 #3 scored calcium entry signal, replicate 1 = 4.70e7; calcium entry signal, replicate 2 = 3.96e7; resting calcium signal, replicate 1 = 2.77e7; resting calcium signal, replicate 2 = 1.72e7.
Against Mtpalpha the deposit lists calcium entry signal, replicate 1 = 4.66e7; resting calcium signal, replicate 1 = 2.12e7.
Mpcp2 showed calcium entry signal, replicate 1 = 5.37e7; calcium entry signal, replicate 2 = 6.49e7; resting calcium signal, replicate 1 = 2.30e7; resting calcium signal, replicate 2 = 2.59e7.
Against Mrp4, the entry reads calcium entry signal, replicate 1 = 3.96e7; calcium entry signal, replicate 2 = 4.06e7; resting calcium signal, replicate 1 = 1.96e7; resting calcium signal, replicate 2 = 1.99e7.
